Measurements as given in publication PMC9178013.

Amino acid sequences for entries named in this document (tags omitted).
UniProt P09012: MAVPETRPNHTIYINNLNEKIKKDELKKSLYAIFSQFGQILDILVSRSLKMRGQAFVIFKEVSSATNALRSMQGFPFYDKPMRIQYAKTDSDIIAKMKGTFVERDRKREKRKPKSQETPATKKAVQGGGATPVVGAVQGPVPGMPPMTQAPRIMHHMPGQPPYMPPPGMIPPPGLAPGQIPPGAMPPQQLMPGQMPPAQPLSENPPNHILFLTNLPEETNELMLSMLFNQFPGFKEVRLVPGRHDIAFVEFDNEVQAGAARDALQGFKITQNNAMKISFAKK

Columns and labels:
[1] = biological target: T1, MYC-UltraID-tagged full-length RNPS1 (UniProt Q15287); test: proximity labelling; MYC-UltraID-tagged full-length RNPS1 in cells; 50 uM biotin for 10 minutes; lysis in phospho-RIPA buffer with RNase A; streptavidin magnetic beads; label-free MS, against MYC-UltraID-NLS control
T1 sequence: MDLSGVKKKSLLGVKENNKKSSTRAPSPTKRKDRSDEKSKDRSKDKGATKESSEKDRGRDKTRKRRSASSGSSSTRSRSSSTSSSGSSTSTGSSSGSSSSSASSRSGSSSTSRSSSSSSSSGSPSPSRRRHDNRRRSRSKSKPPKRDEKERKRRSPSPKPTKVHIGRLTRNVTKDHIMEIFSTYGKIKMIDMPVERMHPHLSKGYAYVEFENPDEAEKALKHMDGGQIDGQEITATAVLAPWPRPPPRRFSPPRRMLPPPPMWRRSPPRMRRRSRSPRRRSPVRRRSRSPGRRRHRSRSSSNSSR

[2] = biological target: T2, FLAG-TurboID-tagged full-length RNPS1 (UniProt Q15287); test: proximity labelling; FLAG-TurboID-tagged RNPS1 construct in HEK293 cells; 50 uM biotin for 10 minutes; lysis in phospho-RIPA buffer with RNase A; streptavidin magnetic beads; label-free MS, against FLAG-TurboID-NLS control
T2 sequence: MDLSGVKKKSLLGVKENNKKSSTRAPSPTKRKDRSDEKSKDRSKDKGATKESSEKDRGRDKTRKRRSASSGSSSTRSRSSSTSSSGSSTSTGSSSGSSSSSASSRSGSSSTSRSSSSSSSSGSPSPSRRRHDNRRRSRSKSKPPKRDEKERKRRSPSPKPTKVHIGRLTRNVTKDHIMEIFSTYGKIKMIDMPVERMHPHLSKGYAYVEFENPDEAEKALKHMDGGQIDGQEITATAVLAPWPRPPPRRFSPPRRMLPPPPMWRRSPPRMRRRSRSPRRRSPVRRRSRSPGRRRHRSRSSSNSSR

[3] = biological target: T3, FLAG-emGFP-tagged full-length RNPS1 (UniProt Q15287); test: affinity purification with mass spectrometry; FLAG-emGFP-tagged RNPS1 construct as bait; lysate in buffer E (20 mM HEPES-KOH pH 7.9, 100 mM KCl, 10% glycerol, 1 mM DTT) with 1 ug/ml RNase A; Anti-FLAG M2 magnetic beads, 2 h at 4 C; mild wash buffer; FLAG peptide elution; label-free MS, against FLAG-emGFP control
T3 sequence: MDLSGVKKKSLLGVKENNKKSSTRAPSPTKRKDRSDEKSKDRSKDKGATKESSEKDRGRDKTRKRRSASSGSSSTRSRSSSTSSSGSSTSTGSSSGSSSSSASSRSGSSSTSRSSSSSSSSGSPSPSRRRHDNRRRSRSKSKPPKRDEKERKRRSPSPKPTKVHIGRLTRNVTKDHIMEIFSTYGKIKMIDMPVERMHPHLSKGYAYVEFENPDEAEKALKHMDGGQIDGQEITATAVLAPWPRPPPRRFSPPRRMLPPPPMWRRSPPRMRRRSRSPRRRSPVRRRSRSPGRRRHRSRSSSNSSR

[4] = biological target: T2, FLAG-TurboID-tagged full-length RNPS1; test: proximity labelling; FLAG-TurboID-tagged RNPS1 construct in HEK293 cells; 50 uM biotin for 10 minutes; lysis in phospho-RIPA buffer with RNase A; streptavidin magnetic beads; label-free MS, against FLAG-TurboID-NLS control; remark: listed apart in the source
[5] = biological target: FLAG-emGFP-tagged C-terminally shortened RNPS1 (Del-C); test: affinity purification with mass spectrometry; FLAG-emGFP-tagged RNPS1 construct as bait; lysate in buffer E (20 mM HEPES-KOH pH 7.9, 100 mM KCl, 10% glycerol, 1 mM DTT) with 1 ug/ml RNase A; Anti-FLAG M2 magnetic beads, 2 h at 4 C; mild wash buffer; FLAG peptide elution; label-free MS, against FLAG-emGFP control
[6] = biological target: FLAG-TurboID-tagged C-terminally shortened RNPS1 (Del-C); test: proximity labelling; FLAG-TurboID-tagged RNPS1 construct in HEK293 cells; 50 uM biotin for 10 minutes; lysis in phospho-RIPA buffer with RNase A; streptavidin magnetic beads; label-free MS, against FLAG-TurboID-NLS control
[7] = biological target: T4, FLAG-TurboID-tagged RNPS1 RRM (UniProt Q15287); test: as above
T4 sequence: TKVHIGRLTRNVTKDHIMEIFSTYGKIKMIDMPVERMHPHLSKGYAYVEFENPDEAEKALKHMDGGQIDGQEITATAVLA

[8] = biological target: T5, FLAG-emGFP-tagged RNPS1 RRM (UniProt Q15287); test: affinity purification with mass spectrometry; FLAG-emGFP-tagged RNPS1 construct as bait; lysate in buffer E (20 mM HEPES-KOH pH 7.9, 100 mM KCl, 10% glycerol, 1 mM DTT) with 1 ug/ml RNase A; Anti-FLAG M2 magnetic beads, 2 h at 4 C; mild wash buffer; FLAG peptide elution; label-free MS, against FLAG-emGFP control
T5 sequence: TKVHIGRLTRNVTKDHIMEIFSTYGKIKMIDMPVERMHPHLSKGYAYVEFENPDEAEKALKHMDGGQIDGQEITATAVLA

Measured: binding

SNRPA (from UniProt P09012 1-282)
binds: [1] | [2] | [3]

B1: LUC7L3 (protein, UniProt O95232 1-432)
chain: MISAAQLLDELMGRDRNLAPDEKRSNVRWDHESVCKYYLCGFCPAELFTNTRSDLGPCEKIHDENLRKQYEKSSRFMKVGYERDFLRYLQSLLAEVERRIRRGHARLALSQNQQSSGAAGPTGKNEEKIQVLTDKIDVLLQQIEELGSEGKVEEAQGMMKLVEQLKEERELLRSTTSTIESFAAQEKQMEVCEVCGAFLIVGDAQSRVDDHLMGKQHMGYAKIKATVEELKEKLRKRTEEPDRDERLKKEKQEREEREKEREREREERERKRRREEEEREKERARDRERRKRSRSRSRHSSRTSDRRCSRSRDHKRSRSRERRRSRSRDRRRSRSHDRSERKHRSRSRDRRRSKSRDRKSYKHRSKSRDREQDRKSKEKEKRGSDDKKSSVKSGSREKQSEDTNTESKESDTKNEVNGTSEDIKSEGDTQSN
binds: [1] | [4] | [5] | [3]

B2: Acinus (ACIN1) (protein, UniProt Q9UKV3 1-1341)
chain: MWRRKHPRTSGGTRGVLSGNRGVEYGSGRGHLGTFEGRWRKLPKMPEAVGTDPSTSRKMAELEEVTLDGKPLQALRVTDLKAALEQRGLAKSGQKSALVKRLKGALMLENLQKHSTPHAAFQPNSQIGEEMSQNSFIKQYLEKQQELLRQRLEREAREAAELEEASAESEDEMIHPEGVASLLPPDFQSSLERPELELSRHSPRKSSSISEEKGDSDDEKPRKGERRSSRVRQARAAKLSEGSQPAEEEEDQETPSRNLRVRADRNLKTEEEEEEEEEEEEDDEEEEGDDEGQKSREAPILKEFKEEGEEIPRVKPEEMMDERPKTRSQEQEVLERGGRFTRSQEEARKSHLARQQQEKEMKTTSPLEEEEREIKSSQGLKEKSKSPSPPRLTEDRKKASLVALPEQTASEEETPPPLLTKEASSPPPHPQLHSEEEIEPMEGPAPAVLIQLSPPNTDADTRELLVSQHTVQLVGGLSPLSSPSDTKAESPAEKVPEESVLPLVQKSTLADYSAQKDLEPESDRSAQPLPLKIEELALAKGITEECLKQPSLEQKEGRRASHTLLPSHRLKQSADSSSSRSSSSSSSSSRSRSRSPDSSGSRSHSPLRSKQRDVAQARTHANPRGRPKMGSRSTSESRSRSRSRSRSASSNSRKSLSPGVSRDSSTSYTETKDPSSGQEVATPPVPQLQVCEPKERTSTSSSSVQARRLSQPESAEKHVTQRLQPERGSPKKCEAEEAEPPAATQPQTSETQTSHLPESERIHHTVEEKEEVTMDTSENRPENDVPEPPMPIADQVSNDDRPEGSVEDEEKKESSLPKSFKRKISVVSATKGVPAGNSDTEGGQPGRKRRWGASTATTQKKPSISITTESLKSLIPDIKPLAGQEAVVDLHADDSRISEDETERNGDDGTHDKGLKICRTVTQVVPAEGQENGQREEEEEEKEPEAEPPVPPQVSVEVALPPPAEHEVKKVTLGDTLTRRSISQQKSGVSITIDDPVRTAQVPSPPRGKISNIVHISNLVRPFTLGQLKELLGRTGTLVEEAFWIDKIKSHCFVTYSTVEEAVATRTALHGVKWPQSNPKFLCADYAEQDELDYHRGLLVDRPSETKTEEQGIPRPLHPPPPPPVQPPQHPRAEQREQERAVREQWAEREREMERRERTRSEREWDRDKVREGPRSRSRSRDRRRKERAKSKEKKSEKKEKAQEEPPAKLLDDLFRKTKAAPCIYWLPLTDSQIVQKEAERAERAKEREKRRKEQEEEEQKEREKEAERERNRQLEREKRREHSRERDRERERERERDRGDRDRDRERDRERGRERDRRDTKRHSRSRSRSTPVRDRGGRR
binds: [1] | [6] | [7] | [4] | [5] | [8] | [3]

B3: LUC7L2 (protein, UniProt Q9Y383 1-392)
chain: MSAQAQMRAMLDQLMGTSRDGDTTRQRIKFSDDRVCKSHLLNCCPHDVLSGTRMDLGECLKVHDLALRADYEIASKEQDFFFELDAMDHLQSFIADCDRRTEVAKKRLAETQEEISAEVAAKAERVHELNEEIGKLLAKVEQLGAEGNVEESQKVMDEVEKARAKKREAEEVYRNSMPASSFQQQKLRVCEVCSAYLGLHDNDRRLADHFGGKLHLGFIEIREKLEELKRVVAEKQEKRNQERLKRREEREREEREKLRRSRSHSKNPKRSRSREHRRHRSRSMSRERKRRTRSKSREKRHRHRSRSSSRSRSRSHQRSRHSSRDRSRERSKRRSSKERFRDQDLASCDRDRSSRDRSPRDRDRKDKKRSYESANGRSEDRRSSEEREAGEI
binds: [1] | [4] | [5] | [3]

B4: Sin3A associated protein 18 (SAP18) (protein, UniProt O00422 1-153)
chain: MAVESRVTQEEIKKEPEKPIDREKTCPLLLRVFTTNNGRHHRMDEFSRGNVPSSELQIYTWMDATLKELTSLVKEVYPEARKKGTHFNFAIVFTDVKRPGYRVKEIGSTMSGRKGTDDSMTLQSQKFQIGDYLDIAITPPNRAPPPSGRMRPY
binds: [1] | [6] | [7] | [4] | [5] | [8] | [3]

B5: SLU7 (protein, UniProt O95391 1-586)
chain: MSATVVDAVNAAPLSGSKEMSLEEPKKMTREDWRKKKELEEQRKLGNAPAEVDEEGKDINPHIPQYISSVPWYIDPSKRPTLKHQRPQPEKQKQFSSSGEWYKRGVKENSIITKYRKGACENCGAMTHKKKDCFERPRRVGAKFTGTNIAPDEHVQPQLMFDYDGKRDRWNGYNPEEHMKIVEEYAKVDLAKRTLKAQKLQEELASGKLVEQANSPKHQWGEEEPNSQMEKDHNSEDEDEDKYADDIDMPGQNFDSKRRITVRNLRIREDIAKYLRNLDPNSAYYDPKTRAMRENPYANAGKNPDEVSYAGDNFVRYTGDTISMAQTQLFAWEAYDKGSEVHLQADPTKLELLYKSFKVKKEDFKEQQKESILEKYGGQEHLDAPPAELLLAQTEDYVEYSRHGTVIKGQERAVACSKYEEDVKIHNHTHIWGSYWKEGRWGYKCCHSFFKYSYCTGEAGKEIVNSEECIINEITGEESVKKPQTLMELHQEKLKEEKKKKKKKKKKHRKSSSDSDDEEKKHEKLKKALNAEEARLLHVKETMQIDERKRPYNSMYETREPTEEEMEAYRMKRQRPDDPMASFLGQ
binds: [8]

B6: U2AF1 (protein, UniProt Q01081 1-240)
chain: MAEYLASIFGTEKDKVNCSFYFKIGACRHGDRCSRLHNKPTFSQTIALLNIYRNPQNSSQSADGLRCAVSDVEMQEHYDEFFEEVFTEMEEKYGEVEEMNVCDNLGDHLVGNVYVKFRREEDAEKAVIDLNNRWFNGQPIHAELSPVTDFREACCRQYEMGECTRGGFCNFMHLKPISRELRRELYGRRRKKHRSRSRSRERRSRSRDRGRGGGGGGGGGGGGRERDRRRSRDRERSGRF
binds: [8] | [3]

Where two headings read alike, the source gives them in different places. No constants are given. Whether binding was seen depends on the method and setting. Binding seen in cells or lysates may run through a third protein. These calls come from enrichment with a bait or labelling near it, and not all partners need be listed. For some of these results: Where a sequence is shown, tags or fusion partners need not be part of it.
